# Measurements: patent US20230242669A1, “ANTIBODY THAT BINDS ERBB-2 AND ERBB-3” (Merus N.V., priority 2014, published 2023)
# At least one compound was matched to its structure with a doubt left.
# Tested on: HER2 overexpressing cells (SK-BR-3, BT-474, N87)
# Test: Drug combinations with PB4188 in vitro (checkerboard, isobolograms)
# Type: cell-based, human
# Details: HER2 amplified cells, HRG
# Protocol: Moreover, combination with chemotherapeutic drugs and cyclin inhibitors were tested. Combinations were tested on HER2 overexpressing cells growing in the presence of HRG in […]® (SK-BR-3 and BT-474) or in the presence of HRG stress concentrations (N87 and SK-BR-3 as described in proliferation assays). The inhibitory effect of drug combinations was tested by imaging or by measuring proliferation using Alamar Blue as described herein before. […] The extent of growth inhibition obtained with each combination was calculated. […] The inhibition values of the combination experiments were used by CHALICE™ Analyzer software to generate the isobolograms.
structure (smiles),measurement,value
CN(C)C/C=C/C(=O)Nc1cc2c(Nc3ccc(F)c(Cl)c3)ncnc2cc1O[C@H]1CCOC1 [afatinib],Drug combination with PB4188 (isobologram analysis),synergistic
